Assay results taken from CN114349860A.
Results are given in words; binding and its absence hold for the method and conditions named. Some results given as binding are weak or reduced against the parent protein; the word gives no strength.

Assays:
[1] = biological target: T1, FGFR4蛋白 (FGFR4 protein antigen, bought from Sino Biological / 义翘神州) (human) (UniProt P22455); test: Western blot on denatured FGFR4 protein (~500 ng per lane), ~10 ug 1B5 in 3 mL
T1 sequence (looked up): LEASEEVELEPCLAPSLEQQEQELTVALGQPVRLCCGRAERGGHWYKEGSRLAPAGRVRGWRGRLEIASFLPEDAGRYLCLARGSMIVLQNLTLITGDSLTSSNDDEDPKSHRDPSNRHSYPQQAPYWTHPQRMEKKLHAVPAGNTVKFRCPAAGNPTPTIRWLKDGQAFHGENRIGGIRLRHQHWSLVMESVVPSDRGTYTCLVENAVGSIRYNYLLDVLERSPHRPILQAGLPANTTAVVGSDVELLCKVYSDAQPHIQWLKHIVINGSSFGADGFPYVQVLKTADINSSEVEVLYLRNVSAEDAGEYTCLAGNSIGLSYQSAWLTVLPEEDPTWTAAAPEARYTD

[2] = biological target: T1, FGFR4蛋白 (FGFR4 protein antigen, bought from Sino Biological / 义翘神州) (human); test: ELISA, 100 ng FGFR4 protein coated per well, 1B5 at 1 ug/mL, HRP goat anti-mouse IgG, OD450

binding [1]: binds | binding [2]: binds
B1: 抗成纤维细胞生长因子受体4单克隆抗体1B5 (antibody, V domains shown)
VH: EVMLVQSGPELKKPGETVKISCKASGYTFTNFGMNWVKQAPGKGLKWMGWINTYTGEPTYADDFKGRFVFSLETSASTAYLQINNLKNEDTATYLCVRSSSGYVFDYWGQGTIVTVG
VL: DIVMTQSPSSLAVSAGEKVTMSCKSSQSLLNSRTRKNYLAWYQQKPGQSPKLLIYWASTRESGVPDRFTGSGSGTDFTLTISSVQAEDLAVYYCKQSYNLLTFGEGTKLEIT
